End groups of sequences in plain letters are not given here.
Assay: peptide made by a vendor
Conditions: whole synthesis

In the case of CDAGRKQKC, the “purity (crude or final not stated)” value is reported as 95%.

From paper PMC11169542 (Nature Communications, 2024)
